Measurements taken from patent US5518912A, “Endopeptidase” (priority 1993, dated 1996).
Entries after “also recorded” stand apart in the source; their conditions may differ. At least one peptide structure holds a part that was inferred or is arguable (an end, a ring closure or a residue). No end group written: not given here.

Key:
[1] = tested on: endopeptidase from the skin of Xenopus laevis; experiment: Substrate specificity analyses: cleavage of peptides and analogues by the purified endopeptidase (acid gel, HPLC/amino acid analysis); assay type: biochemical; details: 50 μg peptide, one hour, room temperature
[2] = tested on: endopeptidase from the skin of Xenopus laevis; experiment: Inhibitor studies: enzyme preincubated with inhibitor, then cleavage of substrate peptide read on acid gel; assay type: biochemical
Method: Reaction buffer consisted of 20 mM Na phosphate, 50 mM NaCl final concentration. After quenching the reaction with 0.5 volume of glacial acetic acid, a 15 μl aliquot of each reaction was analyzed by acidic gel electrophoresis. […]
Inhibitor studies were conducted in the same fashion; the only difference involved first incubating the enzyme with each inhibitor tested at a particular concentration in the absence of any substrate for one hour at room temperature. Substrate was then added to the reaction and allowed to incubate for an additional hour at room temperature.
ACIDIC GEL ELECTROPHORESIS--Acidic gels (pH 4) were prepared and run as originally described (Gabriel, 1971) with several modifications. The gel solution consisted of a final concentration of 15% (v/v) acrylamide (acrylamide:bisacrylamide/37.5:1), 88 mM KOH, 3% (v/v) glacial acetic acid, 0.75% (v/v) […] (Temed), 0.375% ammonium persulfate (30 mg/ml). Before loading samples, 0.5 volume of glacial acetic acid was added, as well as 0.5 volume of 0.1% Pyronin Y loading dye. MINI PROTEAN gel apparatus (Biorad, Richmond, Calif.) were used and gels electrophoresed at 200 volts in running buffer containing 0.035M β-alanine and glacial acetic acid (2.45 ml/l), pH 4.0. Gels were stained in 0.1% (w/v) Coomassie Brilliant Blue R-250 (Sigma), 50% methanol, 50% water and destained in distilled water.

| Substance | cleavage of the peptide by the endopeptidase (in words) [1] | inhibition of cleavage of magainin 2 (in words) ([2]; preincubation with tenfold molar excess of peptide, substrate magainin 2) | inhibition of endoproteolysis against PGLa, XPF and CPF (in words) ([2]; substrates PGLa, XPF and CPF, data not shown) | cleavage of the peptide by the endopeptidase (in words) ([1]; listed as Des-Lys^12) |
| --- | --- | --- | --- | --- |
| GMASKAGAIAKIAKVALKAL-NH2 [Des-Gly^11] | definite decrease in endoproteolysis |  |  |  |
| FLHSAKKFGKAFVGEIMNS-NH2 [Des-1-4] |  | efficiently served to inhibit cleavage | inhibit endoproteolysis |  |
| GMASAGAIAGKIAKVALKAL-NH2 [Des-Lys^5] | cleaved as efficiently as native PGLa |  |  | completely resistant to hydrolysis; also recorded: no susceptibility to hydrolysis |
